Results published in publication PMC8450094.

How the values were obtained:
Assay in all cases: fluorescence polarisation
[1] = target: T1, SNM1B K186A (Homo sapiens) (UniProt Q9H816); conditions: apparent, curves do not saturate; 5' phosphate on strand 1; 5' OH on strand 2; FP: 20 mM HEPES pH 7.5, 50 mM KCl, 0.5 mM TCEP, room temperature, 5 min, DNA 25 nM (Methods) or 50 nM (legends; 10 nM in Suppl. Fig. 14C); recombinant protein; residues 1-335; protein details: C-terminal His10-FLAG, TEV cleavage stated; label: 3' FITC on strand 1
T1 sequence (looked up): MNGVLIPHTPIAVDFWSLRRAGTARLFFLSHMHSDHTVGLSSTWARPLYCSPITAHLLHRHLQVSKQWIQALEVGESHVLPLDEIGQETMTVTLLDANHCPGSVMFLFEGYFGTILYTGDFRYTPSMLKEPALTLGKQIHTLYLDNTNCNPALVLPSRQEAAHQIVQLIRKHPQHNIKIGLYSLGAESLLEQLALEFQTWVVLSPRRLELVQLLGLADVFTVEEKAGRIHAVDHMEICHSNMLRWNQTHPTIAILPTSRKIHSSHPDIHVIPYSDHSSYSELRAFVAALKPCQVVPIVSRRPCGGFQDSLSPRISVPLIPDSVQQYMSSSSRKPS

[2] = target: T2, SNM1B S34A (Homo sapiens) (UniProt Q9H816); conditions: markedly reduced; 5' phosphate on strand 1; 5' OH on strand 2; FP: 20 mM HEPES pH 7.5, 50 mM KCl, 0.5 mM TCEP, room temperature, 5 min, DNA 25 nM (Methods) or 50 nM (legends; 10 nM in Suppl. Fig. 14C); recombinant protein; residues 1-335; protein details: C-terminal His10-FLAG, TEV cleavage stated; label: 3' FITC on strand 1
T2 sequence (looked up): T1 sequence (looked up) with S34A, A186K

[3] = target: T3, SNM1B R20A (Homo sapiens) (UniProt Q9H816); conditions: similar to WT; 5' phosphate on strand 1; 5' OH on strand 2; FP: 20 mM HEPES pH 7.5, 50 mM KCl, 0.5 mM TCEP, room temperature, 5 min, DNA 25 nM (Methods) or 50 nM (legends; 10 nM in Suppl. Fig. 14C); recombinant protein; residues 1-335; protein details: C-terminal His10-FLAG, TEV cleavage stated; label: 3' FITC on strand 1
T3 sequence (looked up): T1 sequence (looked up) with R20A, A186K

[4] = target: T4, SNM1B S183A (Homo sapiens) (UniProt Q9H816); conditions: 5' phosphate on strand 1; 5' OH on strand 2; FP: 20 mM HEPES pH 7.5, 50 mM KCl, 0.5 mM TCEP, room temperature, 5 min, DNA 25 nM (Methods) or 50 nM (legends; 10 nM in Suppl. Fig. 14C); recombinant protein; residues 1-335; protein details: C-terminal His10-FLAG, TEV cleavage stated; label: 3' FITC on strand 1
T4 sequence (looked up): T1 sequence (looked up) with S183A, A186K

[5] = target: T5, SNM1B/Apollo WT (Homo sapiens) (UniProt Q9H816); conditions: apparent, curves do not saturate; 5' phosphate on strand 1; 5' OH on strand 2; FP: 20 mM HEPES pH 7.5, 50 mM KCl, 0.5 mM TCEP, room temperature, 5 min, DNA 25 nM (Methods) or 50 nM (legends; 10 nM in Suppl. Fig. 14C); recombinant protein; residues 1-335; label: 3' FITC on strand 1
T5 sequence (looked up): T1 sequence (looked up) with A186K

For “ATAAATATTTTTTATTAATAATAGATCACCTTTCTTTCTCTTCTCCCCTT / ATTATTAATAAAAAATATTTAT [3' overhang DNA (oligo 20 / oligo 4)]”, the Kd [1] was 2730 nM, the binding result [2] was “binds more weakly” and the binding result [3] was “binds”. The binding signal (fold increase of KDapp vs WT) [4] was 3 and the Kd [5] was 1670 nM.

Positions count from the first letter of the chain named. The exact form of at least one protein or probe is not confirmed. For some assays here: The comparison behind a weaker result is the experiment's own reference, which may not be listed here. Tags and fusion partners may be left off the protein sequences shown. For some assays here: The direction of at least one scale is not stated here.
